PubChem BioAssay AID485314 (National Center for Advancing Translational Sciences (NCATS), 2010)
Screen size: about 340,000 compounds; about 4,500 (1.3%) were called active. The inconclusive results got no clear call from the source; some entries with a clear call stand among them for comparison. Calls follow the shape of the dose curve; as a rule, active = well fitted inhibition curve with a large enough effect; inconclusive = small, poorly fitted or top-dose-only effect, or another doubt; inactive = no such curve, though single readings can be large or run the other way. A potency beside an inconclusive call is a rough fit, not a confirmed value.

These compounds were tested against DNA polymerase beta (Homo sapiens) (UniProt P06746) (assay: qHTS Assay for Inhibitors of DNA Polymerase Beta). Details: Pol beta primer extension/strand displacement, fluorescence kinetic; activity change, negative = inhibition: at 114 µM (top of the series).
How it was run: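 Homogeneous kinetic assay of primer extension and strand displacement by 10 nM Pol beta, preincubated 15 min at room temperature with compound before 50 nM substrate (final) was added. Read at 0 and 10 min; four-parameter Hill fit.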
% is scaled to controls: 0 for no effect and ±100 for the full control effect; potency is read from the fitted curve at half-maximal effect.

Question: Which “activity change, negative = inhibition” value does the source give for `Cc1cccc(C)c1CC(=O)N1CCOCC1` here?
Answer: The value was inactive: 2.31%.

Question: How did the Potency turn out when `CCOc1ccc(-c2c(=O)n(OCc3nc4ccccc4[nH]3)c3ccccc3[n+]2[O-])cc1` was run?
Answer: The Potency was inconclusive: 39.8 µM [inhibitor, full curve, poor fit].

Question: How did the Potency turn out when `COc1ccccc1NC(=O)C/C(C)=N/NC(=O)COc1c(Br)cc(Br)cc1OC` was run?
Answer: The Potency was inconclusive: 35.5 µM [inhibitor, partial curve, poor fit].

Question: How did the “activity change, negative = inhibition” value turn out when `CCOC(=O)CSc1nc2cc3c(cc2c(=O)n1CCCC(=O)NCCc1ccc(OC)c(OC)c1)OCO3` was run?
Answer: The value was inactive: 2.27%.

Question: `COc1ccc(-c2cc3ccccc3oc2=O)cc1NC(=O)c1ccc(Br)o1` was tested. Which Potency did it give?
Answer: Its Potency is inconclusive: 4.47 µM [inhibitor, full curve].

Question: How did the Potency turn out when `Cc1ccc(NC(=O)c2cc(S(=O)(=O)N3CCc4ccccc43)cn2C)cc1` was run?
Answer: The Potency was inconclusive: 89.1 µM [inhibitor, single point].

Question: How did the Potency turn out when `O=C(Nc1cccc(-c2nc3ccccc3c(=O)o2)c1)c1ccccc1` was run?
Answer: Its Potency is inconclusive: 20 µM [inhibitor, single point].

Question: Which Potency does the source give for `COc1ccc(S(=O)(=O)N2CCN(CC(=O)Nc3cc(C(F)(F)F)ccc3Cl)CC2)cc1` here?
Answer: Its Potency is inconclusive: 39.8 µM [inhibitor, single point].

Question: Which Potency does the source give for `C[C@@H](C[C@@H](O)[C@H](O)C(C)(C)O)[C@@H]1CC[C@]2(C)C3=CC[C@H]4C(C)(C)C(=O)CC[C@]4(C)[C@H]3CC[C@@]12C` here?
Answer: The Potency was inconclusive: 89.1 µM [inhibitor, single point].

Question: Which Potency does the source give for `Cc1ccc(Cl)cc1-n1ncc2c(NCCCc3ccccc3)ncnc21` here?
Answer: The Potency was inconclusive: 79.4 µM [inhibitor, single point].

Question: For `Cc1c(Nc2nc3ccccc3n3c(C)nnc23)cccc1C(=O)O`, which “activity change, negative = inhibition” value is on record?
Answer: Its value is inactive: -8.66%.

Question: With `CCCCNC(=O)C1(NC(=O)Nc2ccc(C)cc2)CCCCC1` as the compound, how does the Potency read?
Answer: Its Potency is inconclusive: 63.1 µM [inhibitor, single point].

Question: Which “activity change, negative = inhibition” value does the source give for `Cc1cccc(C)c1NC(=O)CCCCCC1NC(=O)NC1C` (stereo not drawn) here?
Answer: Its value is inactive: 0.795%.

Question: Which Potency does the source give for `O=C(NC1CC1)c1ccc(N2CCCCC2)c([N+](=O)[O-])c1` here?
Answer: Its Potency is inconclusive: 0.355 µM [inhibitor, full curve, poor fit].

Question: For `Nc1[nH]nc2ncc3cc4ccccc4nc3c12`, which Potency is on record?
Answer: Its Potency is inconclusive: 5.01 µM [inhibitor, full curve, poor fit].

Question: How did the Potency turn out when `CC1CCCC(C)N1C(=O)Cn1cc(/C=C2/C(=O)Nc3ccccc32)c2ccccc21` (stereo not drawn) was run?
Answer: The Potency was inconclusive: 50.1 µM [inhibitor, single point].

Question: How did the “activity change, negative = inhibition” value turn out when `Cc1ccc2nc(-c3ccc(Cl)c(NC(=O)COc4ccc(C(C)C)cc4)c3)oc2c1` was run?
Answer: Its value is inactive: 0.594%.

Question: How did the “activity change, negative = inhibition” value turn out when `O=C(c1ccc(OC2CCN(C(=O)C3CC3)CC2)cc1)N(CCO)Cc1ccccc1` was run?
Answer: Its value is inactive: -0.182%.

Question: `Cc1ccccc1NC(=O)CSc1nc(O)cc(=O)n1C` was tested. Which “activity change, negative = inhibition” value did it give?
Answer: Its value is inactive: 2.33%.

Question: `COc1ccccc1Nc1nnc(SCc2cc(=O)n3ccsc3n2)s1` was tested. Which Potency did it give?
Answer: The Potency was inconclusive: 3.16 µM [inhibitor, full curve, poor fit].

Question: For `O=C(CNC(=O)c1ccc(Br)cc1)N=Nc1c(O)[nH]c2ccc([N+](=O)[O-])cc12`, which Potency is on record?
Answer: The Potency was inconclusive: 50.1 µM [inhibitor, partial curve, poor fit].

Question: For `CC1Cc2cc(/C=C3/SC(=S)NC3=O)ccc2O1` (stereo not drawn), which “activity change, negative = inhibition” value is on record?
Answer: Its value is inactive: 3.33%.

Question: How did the Potency turn out when `COc1ccccc1S(=O)Cc1ccc(C(=O)O)o1` (stereo not drawn) was run?
Answer: Its Potency is inconclusive: 79.4 µM [inhibitor, single point].

Question: For `COC(=O)c1ccccc1NC(=O)C1=C(C)C(=O)OC12CCCCCC2`, which “activity change, negative = inhibition” value is on record?
Answer: Its value is inactive: -23.1%.

Question: For `Cc1ccc([N+](=O)[O-])cc1Nc1nc(N2CCOCC2)nc(N2CCOCC2)n1`, which “activity change, negative = inhibition” value is on record?
Answer: Its value is inactive: -0.114%.

Question: For `CCNc1cc(N2CCN(C3CCCCC3)CC2)c2noc3c2c1C(=O)c1ccccc1-3`, which “activity change, negative = inhibition” value is on record?
Answer: The value was inactive: 17.5%.

Question: Which Potency does the source give for `COC(=O)c1[nH]c2ccc(Br)cc2c1NC(=O)CN1CCN(C2CCCCC2)CC1` here?
Answer: Its Potency is inconclusive: 0.794 µM [inhibitor, full curve, poor fit].

Question: With `COc1ccc(NC(=O)CSc2nnc(CNC(=O)c3ccco3)o2)c(OC)c1` as the compound, how does the Potency read?
Answer: The Potency was inconclusive: 7.08 µM [inhibitor, full curve].

Question: With `NS(=O)(=O)c1ccc(NC(=O)CN2C(=O)COc3ccc(Cl)cc32)cc1` as the compound, how does the Potency read?
Answer: Its Potency is inconclusive: 28.2 µM [inhibitor, single point].

Question: `COc1ccc(CNCc2c(O)c(Cl)cc3c(C)c(C)c(=O)oc23)c(OC)c1` was tested. Which Potency did it give?
Answer: Its Potency is inconclusive: 100 µM [inhibitor, single point].

Question: Which Potency does the source give for `O=C(CSc1nnc(-c2ccc(Br)o2)n1Cc1ccccc1)c1ccccc1F` here?
Answer: Its Potency is inconclusive: 25.1 µM [inhibitor, single point].

Question: Which Potency does the source give for `CSc1nc(-c2ccco2)nn1C(=O)c1ccco1` here?
Answer: Its Potency is inconclusive: 79.4 µM [inhibitor, single point].

Question: How did the Potency turn out when `CCOc1cc(/C=C/C(=O)c2ccc(OC)c(CN3CCOCC3)c2)cc(Br)c1O` was run?
Answer: Its Potency is inconclusive: 56.2 µM [inhibitor, partial curve, poor fit].

Question: `O=C(N/N=C/c1ccncc1)c1cc2ccccc2cc1O` was tested. Which “activity change, negative = inhibition” value did it give?
Answer: The value was inactive: -23.9%.

Question: With `COc1ccc(/C=N/NC(=O)c2ccc(NC(C)=O)cc2)cc1COc1ccc(F)cc1F` as the compound, how does the Potency read?
Answer: Its Potency is active: 35.5 µM.

Question: `O=C(COc1ccc(Cl)cc1Cl)N1CCN(C(=O)c2ccco2)CC1` was tested. Which “activity change, negative = inhibition” value did it give?
Answer: The value was inactive: 25.9%.

Question: For `N#CCCC1CCCC=C1N(Cc1ccccc1)C(=O)C(Cl)Cl` (stereo not drawn), which Potency is on record?
Answer: Its Potency is inconclusive: 14.1 µM [inhibitor, partial curve].

Question: With `O=C(Cn1cnc2c(oc3nc4c(cc32)CCCC4)c1=O)Nc1cccc(Cl)c1` as the compound, how does the Potency read?
Answer: Its Potency is inconclusive: 11.2 µM [inhibitor, full curve].

Question: With `Cc1[nH]ncc1-c1ccccc1Cl` as the compound, how does the Potency read?
Answer: The Potency was inconclusive: 89.1 µM [inhibitor, single point].

Question: For `COCC(C)NC(=O)c1cc(-c2ccc(O)cc2)on1` (stereo not drawn), which Potency is on record?
Answer: Its Potency is inconclusive: 39.8 µM [inhibitor, single point].

Question: How did the Potency turn out when `COc1ccccc1C(=O)N1CC(=O)Nc2ccc(C)cc2C1c1ccc(F)cc1` (stereo not drawn) was run?
Answer: The Potency was inconclusive: 17.8 µM [inhibitor, partial curve].

Question: Which Potency does the source give for `Cc1ccc(NC(=O)CCS(=O)(=O)c2cc3c(cc2Cl)NC(=O)CO3)cc1` here?
Answer: Its Potency is inconclusive: 0.251 µM [inhibitor, full curve, poor fit].

Question: Which Potency does the source give for `CCCCn1c(SCC(=O)c2ccc(O)cc2O)nc2cc(S(N)(=O)=O)ccc21` here?
Answer: The Potency was inconclusive: 89.1 µM [inhibitor, single point].

Question: Which Potency does the source give for `O=C(N/N=C/c1ccc([N+](=O)[O-])cc1)c1cccs1` here?
Answer: The Potency was active: 31.6 µM.

Question: How did the Potency turn out when `O=C(COC(=O)c1ccccc1)Nc1cc(Cl)ccc1Oc1ccccc1` was run?
Answer: Its Potency is inconclusive: 89.1 µM [inhibitor, single point].

Question: How did the Potency turn out when `CCN(CC)S(=O)(=O)c1cccc(C(=O)Nc2ccc(C#N)cc2)c1` was run?
Answer: Its Potency is inconclusive: 1.26 µM [inhibitor, full curve].

Question: Which “activity change, negative = inhibition” value does the source give for `COc1ccc(/C=N/NC(=O)c2c(C)nc3ccc(Br)cn23)cc1OC` here?
Answer: The value was inactive: -1.05%.

Question: With `COc1ccc(N2Cc3cccc(C(=O)Nc4cc(C)cc(C)c4)c3C2=O)cc1` as the compound, how does the Potency read?
Answer: Its Potency is active: 10 µM.

Question: For `CCCCC[C@]12Cc3ccccc3C(O1)C1=C(CC(C)(C)CC1=O)O2`, which activity change, negative = inhibition is on record?
Answer: Its activity change, negative = inhibition is inactive: 23.5% [at 22.9 µM].

Question: Which Potency does the source give for `O=c1oc(/C=C/c2ccco2)nc2sc3c(c12)CCC3` here?
Answer: Its Potency is inconclusive: 39.8 µM [inhibitor, single point].

Question: Which Potency does the source give for `CNC(=O)c1c(NC(=O)c2nc3ccccc3s2)sc2c1CCC2` here?
Answer: Its Potency is active: 44.7 µM.

Question: Which Potency does the source give for `Cc1cc(C(=O)N/N=C/c2c(C)n(C)c3ccccc23)n[nH]1` here?
Answer: The Potency was inconclusive: 79.4 µM [inhibitor, single point].

Question: For `O=C(NC1CCCCC1)c1ccc(Cn2c(SCc3ccc(F)cc3)nc3cccnc32)cc1`, which Potency is on record?
Answer: The Potency was inconclusive: 56.2 µM [inhibitor, partial curve].

Question: Which “activity change, negative = inhibition” value does the source give for `CC(=O)N1CCc2cc(S(=O)(=O)NCCC(=O)NC3CCCc4ccccc43)ccc21` (stereo not drawn) here?
Answer: The value was inactive: -2.23%.

Question: With `Cc1ccccc1CC1(CO)CCCN(Cc2ccc(C#CC(C)(C)O)cc2)C1` (stereo not drawn) as the compound, how does the Potency read?
Answer: The Potency was inconclusive: 89.1 µM [inhibitor, single point].

Question: `N#Cc1ccc(OCC(=O)n2cc(C(=O)c3cc(Cl)cc(Cl)c3O)cn2)cc1` was tested. Which activity change, negative = inhibition did it give?
Answer: The activity change, negative = inhibition was inconclusive: -35.1% [inhibitor].

Question: Which Potency does the source give for `COc1ccc(O)c(C(c2c(C)[nH][nH]c2=O)c2c(C)[nH][nH]c2=O)c1` here?
Answer: Its Potency is inconclusive: 56.2 µM [inhibitor, single point].

Question: With `COc1ccc(CNC(=O)C2CCCN2S(=O)(=O)c2ccc(Cl)cc2)cc1` (stereo not drawn) as the compound, how does the “activity change, negative = inhibition” value read?
Answer: Its value is inactive: 0.495%.

Question: How did the Potency turn out when `COc1ccc(OC)c(CNC(=O)c2c3c(nc4ccccc24)C(=O)N(C2CCCCC2)C3)c1` was run?
Answer: The Potency was inconclusive: 89.1 µM [inhibitor, single point].

Question: `CCC(=O)N1CCc2cc(Br)cc(S(=O)(=O)N3CCN(c4ccc(C)cc4)C(C)C3)c21` (stereo not drawn) was tested. Which “activity change, negative = inhibition” value did it give?
Answer: Its value is inactive: -14.6%.

Question: Which Potency does the source give for `CC(=O)CSc1nnc(-c2cnccn2)n1-c1ccccc1` here?
Answer: Its Potency is inconclusive: 100 µM [inhibitor, single point].

Question: `CCOc1cc(CNC(CC)CO)ccc1OCC(=O)Nc1cccc(C(F)(F)F)c1` (stereo not drawn) was tested. Which Potency did it give?
Answer: Its Potency is inconclusive: 89.1 µM [inhibitor, single point].

Question: How did the Potency turn out when `COc1ccc(Oc2nc(C)cc(C)c2C#N)cc1` was run?
Answer: The Potency was inconclusive: 89.1 µM [inhibitor, single point].

Question: How did the Potency turn out when `O=C1CCCC2=C1C(c1ccc(O)c(O)c1)Nc1ccc3ncccc3c12` (stereo not drawn) was run?
Answer: Its Potency is active: 11.2 µM.

Question: For `O=C1NC(=O)/C(=C\c2ccccc2OCc2ccccc2)S1`, which Potency is on record?
Answer: The Potency was inconclusive: 89.1 µM [inhibitor, single point].

Question: For `CCCSc1nnc(-c2cnn(-c3ccccc3)c2-n2cccc2)n1C`, which Potency is on record?
Answer: The Potency was inconclusive: 89.1 µM [inhibitor, single point].

Question: How did the Potency turn out when `COC(=O)c1ccc(SCC(=O)NCc2ccccc2)c([N+](=O)[O-])c1` was run?
Answer: Its Potency is inconclusive: 3.98 µM [inhibitor, single point].

Question: How did the “activity change, negative = inhibition” value turn out when `Cc1cccc(-c2nc(C)c(CCNC(=O)C(=O)Nc3cccc(Cl)c3C)s2)c1` was run?
Answer: Its value is inactive: -0.442%.
